Results are given in words; binding and its absence hold for the method and conditions named. Binding seen in cells or lysates may run through a third protein. Some binding calls cover weakened binding; strength is not graded here.

Chains of the proteins cited; added tags and fusions are not shown.
UniProt Q92736: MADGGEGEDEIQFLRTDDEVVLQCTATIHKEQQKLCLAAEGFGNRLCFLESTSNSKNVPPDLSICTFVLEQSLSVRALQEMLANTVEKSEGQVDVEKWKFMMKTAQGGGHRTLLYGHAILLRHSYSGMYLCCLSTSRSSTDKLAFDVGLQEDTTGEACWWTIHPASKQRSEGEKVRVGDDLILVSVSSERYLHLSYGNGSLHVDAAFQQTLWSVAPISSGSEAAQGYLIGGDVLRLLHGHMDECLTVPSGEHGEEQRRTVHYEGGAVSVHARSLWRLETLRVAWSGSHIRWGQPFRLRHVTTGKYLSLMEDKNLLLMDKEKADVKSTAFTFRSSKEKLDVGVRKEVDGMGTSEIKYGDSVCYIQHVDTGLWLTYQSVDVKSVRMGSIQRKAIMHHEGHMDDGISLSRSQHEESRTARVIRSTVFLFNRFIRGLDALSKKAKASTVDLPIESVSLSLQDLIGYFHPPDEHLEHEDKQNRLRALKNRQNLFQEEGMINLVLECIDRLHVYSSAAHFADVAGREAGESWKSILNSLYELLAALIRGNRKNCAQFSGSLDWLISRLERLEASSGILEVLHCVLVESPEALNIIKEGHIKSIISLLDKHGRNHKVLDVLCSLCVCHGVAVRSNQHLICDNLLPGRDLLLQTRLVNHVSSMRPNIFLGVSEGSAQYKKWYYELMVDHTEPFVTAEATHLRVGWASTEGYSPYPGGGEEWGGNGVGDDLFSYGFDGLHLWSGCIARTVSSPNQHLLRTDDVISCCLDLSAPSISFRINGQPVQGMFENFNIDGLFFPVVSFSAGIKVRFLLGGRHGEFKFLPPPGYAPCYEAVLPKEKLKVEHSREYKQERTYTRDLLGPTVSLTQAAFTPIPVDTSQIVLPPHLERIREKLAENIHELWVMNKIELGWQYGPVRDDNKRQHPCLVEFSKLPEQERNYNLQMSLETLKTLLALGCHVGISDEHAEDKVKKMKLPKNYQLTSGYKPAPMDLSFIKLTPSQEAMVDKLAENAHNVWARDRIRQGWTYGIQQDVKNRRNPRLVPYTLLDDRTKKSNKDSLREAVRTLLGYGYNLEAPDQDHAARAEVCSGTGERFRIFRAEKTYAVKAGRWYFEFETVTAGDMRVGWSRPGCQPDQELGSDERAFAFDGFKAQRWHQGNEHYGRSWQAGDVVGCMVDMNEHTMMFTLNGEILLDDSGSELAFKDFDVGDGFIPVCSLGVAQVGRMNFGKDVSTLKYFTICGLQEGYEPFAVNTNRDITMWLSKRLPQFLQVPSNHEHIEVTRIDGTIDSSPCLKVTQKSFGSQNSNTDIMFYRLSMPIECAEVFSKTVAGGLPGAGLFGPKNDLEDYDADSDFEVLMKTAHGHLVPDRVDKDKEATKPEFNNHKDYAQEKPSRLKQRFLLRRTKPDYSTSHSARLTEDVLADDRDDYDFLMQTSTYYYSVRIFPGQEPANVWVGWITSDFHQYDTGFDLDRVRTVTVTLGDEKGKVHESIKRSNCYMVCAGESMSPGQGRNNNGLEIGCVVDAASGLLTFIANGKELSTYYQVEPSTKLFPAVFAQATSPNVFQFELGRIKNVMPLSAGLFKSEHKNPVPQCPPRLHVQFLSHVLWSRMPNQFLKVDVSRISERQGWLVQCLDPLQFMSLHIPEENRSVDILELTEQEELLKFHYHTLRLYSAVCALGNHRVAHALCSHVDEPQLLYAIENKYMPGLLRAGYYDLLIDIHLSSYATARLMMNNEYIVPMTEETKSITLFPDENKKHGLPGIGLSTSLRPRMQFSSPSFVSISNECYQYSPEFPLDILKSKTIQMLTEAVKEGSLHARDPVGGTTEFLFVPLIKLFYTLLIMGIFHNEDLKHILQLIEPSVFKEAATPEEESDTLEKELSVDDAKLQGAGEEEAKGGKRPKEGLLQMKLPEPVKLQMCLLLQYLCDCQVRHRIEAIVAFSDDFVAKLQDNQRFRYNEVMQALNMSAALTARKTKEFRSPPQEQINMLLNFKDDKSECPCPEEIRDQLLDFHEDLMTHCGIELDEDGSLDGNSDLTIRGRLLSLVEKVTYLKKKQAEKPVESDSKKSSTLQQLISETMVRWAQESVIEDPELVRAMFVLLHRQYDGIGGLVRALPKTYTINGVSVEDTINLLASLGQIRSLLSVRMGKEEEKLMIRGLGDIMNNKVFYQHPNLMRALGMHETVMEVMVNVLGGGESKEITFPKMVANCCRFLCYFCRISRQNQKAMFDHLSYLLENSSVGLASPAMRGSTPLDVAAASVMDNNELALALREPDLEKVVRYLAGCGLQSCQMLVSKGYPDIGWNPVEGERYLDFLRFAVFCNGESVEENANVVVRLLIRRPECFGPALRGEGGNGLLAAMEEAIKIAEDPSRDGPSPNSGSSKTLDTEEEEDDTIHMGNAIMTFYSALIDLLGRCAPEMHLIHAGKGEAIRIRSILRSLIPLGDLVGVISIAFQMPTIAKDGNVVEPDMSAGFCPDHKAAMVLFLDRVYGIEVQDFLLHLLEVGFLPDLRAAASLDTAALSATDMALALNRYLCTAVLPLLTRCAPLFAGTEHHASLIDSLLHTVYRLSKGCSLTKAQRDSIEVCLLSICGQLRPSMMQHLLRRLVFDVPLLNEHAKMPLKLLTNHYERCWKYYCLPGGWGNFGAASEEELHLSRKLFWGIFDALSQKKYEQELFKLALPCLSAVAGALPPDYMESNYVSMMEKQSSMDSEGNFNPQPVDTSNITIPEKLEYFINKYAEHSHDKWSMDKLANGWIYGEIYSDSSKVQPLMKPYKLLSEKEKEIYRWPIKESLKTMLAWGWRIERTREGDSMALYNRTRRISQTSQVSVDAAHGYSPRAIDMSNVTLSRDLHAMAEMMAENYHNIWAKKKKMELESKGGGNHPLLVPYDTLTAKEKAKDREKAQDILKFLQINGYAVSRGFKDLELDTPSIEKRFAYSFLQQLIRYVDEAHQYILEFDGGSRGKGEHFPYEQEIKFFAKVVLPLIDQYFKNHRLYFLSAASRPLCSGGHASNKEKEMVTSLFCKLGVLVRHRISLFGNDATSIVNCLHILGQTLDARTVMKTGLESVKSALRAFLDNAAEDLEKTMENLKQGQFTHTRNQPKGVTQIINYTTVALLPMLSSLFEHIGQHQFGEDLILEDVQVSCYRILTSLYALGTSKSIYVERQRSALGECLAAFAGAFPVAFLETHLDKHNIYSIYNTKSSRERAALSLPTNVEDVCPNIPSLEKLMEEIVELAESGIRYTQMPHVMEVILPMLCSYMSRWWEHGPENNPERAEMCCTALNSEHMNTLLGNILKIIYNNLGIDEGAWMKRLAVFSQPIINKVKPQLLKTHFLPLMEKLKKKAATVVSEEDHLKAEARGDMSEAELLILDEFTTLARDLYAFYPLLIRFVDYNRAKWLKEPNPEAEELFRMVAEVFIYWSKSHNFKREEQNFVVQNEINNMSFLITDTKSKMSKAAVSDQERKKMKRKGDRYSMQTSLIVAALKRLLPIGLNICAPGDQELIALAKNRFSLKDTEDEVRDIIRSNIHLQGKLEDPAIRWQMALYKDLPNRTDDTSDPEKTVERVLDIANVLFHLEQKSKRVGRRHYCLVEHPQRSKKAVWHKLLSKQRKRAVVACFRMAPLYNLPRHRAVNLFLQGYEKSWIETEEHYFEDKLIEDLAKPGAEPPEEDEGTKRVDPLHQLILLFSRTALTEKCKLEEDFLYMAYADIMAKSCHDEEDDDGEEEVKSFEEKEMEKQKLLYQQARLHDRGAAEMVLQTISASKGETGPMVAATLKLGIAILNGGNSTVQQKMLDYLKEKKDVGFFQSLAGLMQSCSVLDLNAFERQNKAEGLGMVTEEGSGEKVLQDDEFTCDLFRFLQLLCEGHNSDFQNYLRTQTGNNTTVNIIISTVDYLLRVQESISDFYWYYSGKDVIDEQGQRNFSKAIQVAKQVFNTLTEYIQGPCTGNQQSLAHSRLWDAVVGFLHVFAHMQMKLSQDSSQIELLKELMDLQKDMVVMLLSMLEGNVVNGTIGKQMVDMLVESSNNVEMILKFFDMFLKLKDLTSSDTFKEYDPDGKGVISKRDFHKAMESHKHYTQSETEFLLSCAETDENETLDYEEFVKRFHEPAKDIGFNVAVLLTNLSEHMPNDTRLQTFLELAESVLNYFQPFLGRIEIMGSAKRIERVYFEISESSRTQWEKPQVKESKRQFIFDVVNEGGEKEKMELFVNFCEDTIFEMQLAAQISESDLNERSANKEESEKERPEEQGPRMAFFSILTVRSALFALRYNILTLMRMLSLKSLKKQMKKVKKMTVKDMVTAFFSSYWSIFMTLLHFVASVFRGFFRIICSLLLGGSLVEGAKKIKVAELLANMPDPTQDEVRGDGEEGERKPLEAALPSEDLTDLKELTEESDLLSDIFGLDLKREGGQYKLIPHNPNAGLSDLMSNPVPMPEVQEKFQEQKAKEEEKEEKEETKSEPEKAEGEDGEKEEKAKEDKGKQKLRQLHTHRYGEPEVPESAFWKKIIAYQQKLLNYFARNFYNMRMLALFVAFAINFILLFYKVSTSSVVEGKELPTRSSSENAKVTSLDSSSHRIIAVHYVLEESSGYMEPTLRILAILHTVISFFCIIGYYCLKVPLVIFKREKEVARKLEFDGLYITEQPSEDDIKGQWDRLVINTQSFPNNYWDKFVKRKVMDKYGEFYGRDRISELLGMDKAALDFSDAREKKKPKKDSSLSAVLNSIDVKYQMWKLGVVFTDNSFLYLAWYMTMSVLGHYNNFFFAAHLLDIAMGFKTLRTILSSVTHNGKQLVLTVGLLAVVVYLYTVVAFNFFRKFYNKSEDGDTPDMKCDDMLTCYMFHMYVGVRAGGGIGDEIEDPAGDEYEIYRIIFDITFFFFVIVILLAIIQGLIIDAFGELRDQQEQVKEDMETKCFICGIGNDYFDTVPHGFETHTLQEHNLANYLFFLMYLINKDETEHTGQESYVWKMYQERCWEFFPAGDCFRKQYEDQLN

From publication PMC5143404 come the findings set out here.

In test [1] the target is T1, junctophilin 3 (human) (human (endogenous in pancreatic tissue)) (UniProt Q8WXH2).
T1 sequence: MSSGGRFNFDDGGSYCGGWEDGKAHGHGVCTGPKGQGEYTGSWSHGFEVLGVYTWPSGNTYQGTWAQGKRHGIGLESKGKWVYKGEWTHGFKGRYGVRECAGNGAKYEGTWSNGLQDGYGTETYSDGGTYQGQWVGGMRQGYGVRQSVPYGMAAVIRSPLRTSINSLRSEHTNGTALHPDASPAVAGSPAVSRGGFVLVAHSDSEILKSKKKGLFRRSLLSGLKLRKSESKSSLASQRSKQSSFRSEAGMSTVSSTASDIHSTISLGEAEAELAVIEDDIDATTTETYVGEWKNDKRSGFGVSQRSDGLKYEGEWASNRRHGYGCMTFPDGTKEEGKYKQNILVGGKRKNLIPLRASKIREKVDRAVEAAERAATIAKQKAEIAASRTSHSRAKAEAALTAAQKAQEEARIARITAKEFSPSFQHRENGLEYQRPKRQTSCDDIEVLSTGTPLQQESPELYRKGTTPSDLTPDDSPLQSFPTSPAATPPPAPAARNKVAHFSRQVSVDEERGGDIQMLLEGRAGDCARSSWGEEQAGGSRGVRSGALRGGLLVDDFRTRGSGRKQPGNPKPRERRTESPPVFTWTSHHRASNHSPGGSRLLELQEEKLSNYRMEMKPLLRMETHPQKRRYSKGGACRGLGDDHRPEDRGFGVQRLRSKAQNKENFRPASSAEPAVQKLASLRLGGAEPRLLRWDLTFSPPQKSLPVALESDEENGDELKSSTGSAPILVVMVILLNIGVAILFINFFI
Put plainly: co-IP; human pancreatic tissue (n=3); precipitated with anti-RyR2 or anti-JPH3 antibodies, coimmunoprecipitates analysed by immunoblotting with anti-JPH3 or anti-RyR1, 2, 3 antibodies. (In general: Immunoblotting shows a protein as a band on a membrane.)

For test [2], the target named is type 2 ryanodine receptor (mouse) (mouse (endogenous in pancreatic tissue)) (UniProt E9Q401). Put plainly: co-IP; mouse pancreatic tissue (n=5); precipitated with anti-RyR2 or anti-JPH3 antibodies, coimmunoprecipitates analysed by immunoblotting with anti-JPH3 or anti-RyR1, 2, 3 antibodies.
Test [3] addresses type 2 ryanodine receptor (human) (human (endogenous in pancreatic tissue)) (UniProt Q92736). Put plainly: co-IP; human pancreatic tissue (n=3); precipitated with anti-RyR2 or anti-JPH3 antibodies, coimmunoprecipitates analysed by immunoblotting with anti-JPH3 or anti-RyR1, 2, 3 antibodies.

Turning to “type 2 ryanodine receptor (human) (from UniProt Q92736 1-4967)”, in test [1], the binding result was “binds”.

B1: junctophilin 3 (mouse) (protein, UniProt Q9ET77 1-744)
chain: MSSGGRFNFDDGGSYCGGWEDGKAHGHGVCTGPKGQGEYTGSWSHGFEVLGVYTWPSGNTYQGTWAQGKRHGIGLESKGKWVYKGEWTHGFKGRYGVRECTGNGAKYEGTWSNGLQDGYGTETYSDGGTYQGQWVGGMRQGYGVRQSVPYGMAAVIRSPLRTSINSLRSEHTNGAALHPDASPAVAGSPAVSRGGFVLVAHSDSEILKSKKKGLFRRSLLSGLKLRKSESKSSLASQRSKQSSFRSEAGMSTVSSTASDIHSTISLGEAEAELAVIEDDIDATTTETYVGEWKNDKRSGFGVSQRSDGLKYEGEWVSNRRHGYGCMTFPDGTKEEGKYKQNVLVSGKRKNLIPLRASKIREKVDRAVEAAERAATIAKQKAEIAASRTSHSRAKAEAALTAAQKAQEEARIARITAKEFSPSFQHRENGLEYQRPKHQMSCDDIEVLSTGTPLQQESPELYRKGTTPSDLTPDDSPLQSFPASPTSTPPPAPASRTKMAHFSRQVSVDEERSGDIQMLLEGRGGDYARNSWGEEKAGASRGIRSGALRSGQPTEDFRTRGSGHKQPGNPKPRERRTESPTTFSWTSHHRAGNPCSGGPKLLEPDEEQLSNYKLEMKPLLRMDACPQDTHPQRRRHSRGAGGDRGFGLQRLRSKSQNKENLRPASSAEPTVQKLESLRLGDRPEPRLLRWDLTFSPPQKSLPVALESDEETGDELKSSTGSAPILVVMVILLNIGVAILFINFFI
Regarding B1, the binding entry in test [2] is given as “binds”.

B2: junctophilin 3 (human) (protein, UniProt Q8WXH2 1-748)
chain: T1 sequence
For the molecule B2, the binding result in test [3] is given as “binds”.
